The values that follow come from publication PMC3454344.

Protein sequences, listed by entry. Tags and fused reporters are not part of them.
UniProt P70288: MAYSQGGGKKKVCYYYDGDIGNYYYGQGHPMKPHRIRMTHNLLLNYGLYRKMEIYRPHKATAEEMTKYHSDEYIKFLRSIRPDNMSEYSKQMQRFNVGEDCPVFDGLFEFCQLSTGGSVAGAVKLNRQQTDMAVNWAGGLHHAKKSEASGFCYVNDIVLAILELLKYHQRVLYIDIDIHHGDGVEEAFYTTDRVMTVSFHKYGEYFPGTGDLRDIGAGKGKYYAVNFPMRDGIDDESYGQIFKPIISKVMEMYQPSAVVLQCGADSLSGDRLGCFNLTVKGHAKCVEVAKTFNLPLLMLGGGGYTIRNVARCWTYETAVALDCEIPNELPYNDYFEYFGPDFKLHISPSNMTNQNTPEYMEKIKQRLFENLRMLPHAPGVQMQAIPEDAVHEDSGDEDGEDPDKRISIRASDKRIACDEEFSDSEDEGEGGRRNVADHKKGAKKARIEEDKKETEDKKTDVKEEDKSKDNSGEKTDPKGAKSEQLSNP
UniProt B2RWS6: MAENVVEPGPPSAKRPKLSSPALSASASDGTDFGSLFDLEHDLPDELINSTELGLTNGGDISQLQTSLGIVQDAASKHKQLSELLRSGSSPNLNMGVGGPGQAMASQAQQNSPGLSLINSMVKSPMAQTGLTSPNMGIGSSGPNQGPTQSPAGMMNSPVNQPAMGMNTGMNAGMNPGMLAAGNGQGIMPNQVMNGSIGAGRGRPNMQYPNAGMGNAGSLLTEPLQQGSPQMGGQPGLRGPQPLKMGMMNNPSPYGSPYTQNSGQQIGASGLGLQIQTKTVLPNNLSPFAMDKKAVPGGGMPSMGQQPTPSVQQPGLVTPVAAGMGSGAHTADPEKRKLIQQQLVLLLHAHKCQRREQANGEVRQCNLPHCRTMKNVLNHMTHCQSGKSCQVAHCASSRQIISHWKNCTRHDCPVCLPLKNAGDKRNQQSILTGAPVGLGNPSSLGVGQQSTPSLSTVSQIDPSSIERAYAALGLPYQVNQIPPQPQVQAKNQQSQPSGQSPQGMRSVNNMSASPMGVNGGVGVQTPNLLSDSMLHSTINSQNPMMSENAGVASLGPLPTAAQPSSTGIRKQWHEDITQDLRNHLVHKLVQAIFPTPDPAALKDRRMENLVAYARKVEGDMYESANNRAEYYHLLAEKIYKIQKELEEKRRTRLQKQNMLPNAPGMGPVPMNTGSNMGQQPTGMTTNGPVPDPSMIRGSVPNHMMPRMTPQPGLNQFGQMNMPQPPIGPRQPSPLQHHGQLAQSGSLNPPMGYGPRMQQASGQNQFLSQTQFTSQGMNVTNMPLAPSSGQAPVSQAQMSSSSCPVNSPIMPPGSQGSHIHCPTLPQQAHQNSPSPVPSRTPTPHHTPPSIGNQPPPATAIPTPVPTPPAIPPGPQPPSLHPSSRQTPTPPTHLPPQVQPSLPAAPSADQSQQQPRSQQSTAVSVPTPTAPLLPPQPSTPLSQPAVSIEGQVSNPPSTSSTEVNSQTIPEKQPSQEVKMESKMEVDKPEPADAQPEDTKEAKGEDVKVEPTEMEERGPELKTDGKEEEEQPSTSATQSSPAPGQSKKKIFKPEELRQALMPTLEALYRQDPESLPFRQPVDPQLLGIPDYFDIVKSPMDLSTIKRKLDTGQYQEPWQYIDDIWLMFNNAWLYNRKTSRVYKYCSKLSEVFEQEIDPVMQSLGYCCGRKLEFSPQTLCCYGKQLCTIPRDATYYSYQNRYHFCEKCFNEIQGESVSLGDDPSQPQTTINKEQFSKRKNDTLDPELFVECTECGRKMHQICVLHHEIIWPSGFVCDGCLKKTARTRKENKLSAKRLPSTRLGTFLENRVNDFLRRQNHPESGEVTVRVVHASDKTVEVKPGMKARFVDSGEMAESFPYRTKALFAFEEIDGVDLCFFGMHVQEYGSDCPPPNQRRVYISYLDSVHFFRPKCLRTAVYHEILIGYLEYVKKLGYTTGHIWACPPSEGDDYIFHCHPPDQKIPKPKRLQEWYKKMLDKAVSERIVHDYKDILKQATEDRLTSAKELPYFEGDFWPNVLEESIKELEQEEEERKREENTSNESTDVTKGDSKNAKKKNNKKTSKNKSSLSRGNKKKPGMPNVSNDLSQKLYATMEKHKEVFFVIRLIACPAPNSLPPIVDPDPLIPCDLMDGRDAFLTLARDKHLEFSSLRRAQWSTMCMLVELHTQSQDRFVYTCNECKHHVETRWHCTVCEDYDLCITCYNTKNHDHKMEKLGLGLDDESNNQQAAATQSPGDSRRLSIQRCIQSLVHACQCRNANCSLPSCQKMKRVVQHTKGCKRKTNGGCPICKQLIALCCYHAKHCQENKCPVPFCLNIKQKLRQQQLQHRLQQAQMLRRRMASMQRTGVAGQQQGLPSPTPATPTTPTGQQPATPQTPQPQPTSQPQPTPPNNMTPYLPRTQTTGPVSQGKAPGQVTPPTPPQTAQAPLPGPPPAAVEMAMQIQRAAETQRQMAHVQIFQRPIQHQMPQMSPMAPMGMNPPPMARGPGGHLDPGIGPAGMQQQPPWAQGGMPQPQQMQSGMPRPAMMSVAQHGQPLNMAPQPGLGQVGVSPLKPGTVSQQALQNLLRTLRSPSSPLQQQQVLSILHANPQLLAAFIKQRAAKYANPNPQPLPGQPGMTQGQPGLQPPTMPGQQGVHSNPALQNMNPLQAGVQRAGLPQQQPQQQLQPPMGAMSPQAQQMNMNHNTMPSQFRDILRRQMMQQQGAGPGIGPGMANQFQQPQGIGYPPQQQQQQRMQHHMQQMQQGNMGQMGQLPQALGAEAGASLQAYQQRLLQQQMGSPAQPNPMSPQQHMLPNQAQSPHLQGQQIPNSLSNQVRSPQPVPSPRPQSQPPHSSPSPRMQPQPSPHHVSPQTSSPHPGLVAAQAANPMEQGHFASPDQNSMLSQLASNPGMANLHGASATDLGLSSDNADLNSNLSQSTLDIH

Results are given in words; binding and its absence hold for the method and conditions named. Binding seen in cells or lysates may run through a third protein. Some results given as binding are weak or reduced against the parent protein; the word gives no strength.

Assay in all cases: co-IP; nuclear extract of S-phase NIH3T3 cells (16 h after re-addition of fully supplemented medium); antibody 2.5 ug/ml for 60 min at 4 C, Protein G Sepharose in IP-buffer (PBS, 1% Triton-X-100, 1 mM DTT, 0.2 mM PMSF, 1 mM NaF) for 2 h at 4 C, 4 washes; SDS-PAGE and immunoblotting
Assay [1] has as its target deacetylase HDAC II (mouse (endogenous in NIH3T3)) (UniProt P70288).
The target in assay [2] is acetyltransferase p300 (mouse (endogenous in NIH3T3)) (UniProt B2RWS6).
The target of assay [3] is HDAC I (mouse (endogenous in NIH3T3)), O09106. The conditions noted are these: remark: other sources report otherwise.

B1: Rb2/p130 (protein, UniProt Q64700 1-1135)
chain: MASGGNQSPPPPPAAAASSEEEEEDGDAADRAQPAGSPSHQIQQRFEELCSRLNMDEAARAEAWSSYRSMSESYTLEGNDLHWLACALYVACRKSVPTVSKGTAEGNYVSLTRILRCSEQSLIEFFNKMKKWEDMANLPPHFRERTERLERNFTVSAVIFKKYEPIFQDIFKYPQEEQPRQQRGRKQRRQPCTTSEIFHFCWVLFIYAKGNFPMISDDLVNSYHLLLCALDLVYGNALQCSNRKELVNPNFKGLSEDCHPKDSKASSDPPCVIEKLCSLHDGLVLEAKGIKEHFWKPYIRKLFEKKLLKGKEENLTGFLEPGNFGESFKAVNKAYEEYVLAAGNLDERVFLGEDAEEEVGTLSRCLSAASGTESAERTQMRDILQQHLDKSKALRVCTPLTGVRYVQENSPCVTPVSTAAHSLSRLHTMLSGLRNAPSEKLERILRSCSRDPTQAIADRLKEMYEIYSQHFQPDENFSNCAKEIANKHFRFAEMLYYKVLESVIEQEQKRLGDMDLSGVLEHDAFHRSLLACCLEVVAFSHKPPGNFPFIAEIFDVPHYHFYKVIEVFIRAEDGLCREVVKHLNQIEEQILDHLAWKTKSPLWDRIRDNENRVPTCEEVMPPQNLERTDEIYIAGSPLTPRRVGEVRADAGGLGRSITSPTTLYDRYSSPTVSTTRRRLFENDSPSEGSTSGRIPPQPLVNAVPVQNVPGETVSVTPVPGQTLVTMATATVTANNGQTVTIPVQGIANENGGITFFPVQVNVGGQAQAVAGSIQPLSAQALAGSLSSQQVTGTTLQVPGPVAIQQISPGGQQQNPGQPLTSSSIRPRKTSSLALFFRKVYYLAGVRLRDLCIKLDISDELRKKIWTCFEFSIIQCTELMMDRHLDQLLMCAIYVMAKVTKEDRSFQNIMRCYRTQPQARSQVYRSVLIKGKRRNSGSSESRSHQNSPTELNTDRASRDSSPVMRSNSTLPVPQPSSAPPTPTRLTGASSDVEEEERGDLIQFYNNIYRKQIQAFAMKYSQANAQTDTPPLSPYPFVRTGSPRRVQLSQSHPIYISPHNNEAMPSPREKIFYYFSNSPSKRLREINSMIRTGETPTKKRGILLDDGSESPAKRICPENHSALLRRLQDVANDRGSQ
B1: the binding result in assay [1] and in assay [2] was “binds” each time.

B2: Rb2/p130, Q64700 1-1135 (protein)
chain: B1 chain
With B2, the binding result in assay [3] was “no binding”.
